Measurements reported in PMC9609924, “In Vitro Characterization of Inhibitors for Lung A549 and Leukemia K562 Cell Lines from Fungal Transformation of Arecoline Supported by In Silico Docking to M3-mAChR and ADME Prediction” (Pharmaceuticals, 2022).

Legend:
[1] = test system: non-small-cell lung cancer A549 cell line; assay: cells; details: Homo sapiens, A549, 48 h, read-out: Cytotoxicity IC50 ± SD, Non-Small-Cell Lung Cancer A549
Procedure: Cell lines were obtained from the American Type Culture Collection (ATCC). Cells were cultured using Dulbecco’s Modified Eagle’s Medium (DMEM) (Invitrogen/Life Technologies, Waltham, MA, USA) supplemented with 10% fetal bovine serum (FBS, Hyclone, Logan, UT, USA), 10 µg/mL of insulin (Sigma Aldrich, St. Louis, MO, USA) and 1% mixture of penicillin and streptomycin. After incubation for 48 h with the isolated compounds, the viability of cells was measured using an MTT assay to determine the toxic concentration for each compound using the microplate reader according to the published procedures.

normal lung cell WI38 = assay: MTT cytotoxicity assay, normal lung cell WI38; format: cell-based; details: IC50 against normal WI38 divided by IC50 against A549
Procedure: (§1) The selectivity index identifies the selectivity of the tested compounds toward the cancer cell line and is calculated by dividing the IC50 against the normal cell line by the IC50 against the cancer cells.

[2] = test system: normal blood cell PCS-800-016; assay: MTT cytotoxicity assay, normal blood cell PCS-800-016; format: cell-based; details: IC50 against normal PCS-800-016 divided by IC50 against K562
Procedure: as §1

For CN[C@@H]1C[C@H]2O[C@@](C)([C@@H]1OC)n1c3ccccc3c3c4c(c5c6ccccc6n2c5c31)C(=O)NC4 [Staurosporine, reference compound], the IC50 [1] was 10.5 ± 0.64 µM, the “SI (Lung), selectivity index” value (normal lung cell WI38) was 1.57 and the “SI (Blood Cell), selectivity index” value [2] was 2.56.
